Data reported in PMC6925144, “A prospective compound screening contest identified broader inhibitors for Sirtuin 1” (Scientific Reports, 2019).
The full ranking holds about 3,200 compounds; the median of “TSA(without NAD+) / Primary screening (TSA) / delta Tm (K)” is about -0.07, and the highest 2% start at about 0.37. The list shows a part of the results.

Amino acid sequences for entries named in this document (tags omitted). Residues count along the entry.
UniProt Q96EB6, 2-747 limits assumed: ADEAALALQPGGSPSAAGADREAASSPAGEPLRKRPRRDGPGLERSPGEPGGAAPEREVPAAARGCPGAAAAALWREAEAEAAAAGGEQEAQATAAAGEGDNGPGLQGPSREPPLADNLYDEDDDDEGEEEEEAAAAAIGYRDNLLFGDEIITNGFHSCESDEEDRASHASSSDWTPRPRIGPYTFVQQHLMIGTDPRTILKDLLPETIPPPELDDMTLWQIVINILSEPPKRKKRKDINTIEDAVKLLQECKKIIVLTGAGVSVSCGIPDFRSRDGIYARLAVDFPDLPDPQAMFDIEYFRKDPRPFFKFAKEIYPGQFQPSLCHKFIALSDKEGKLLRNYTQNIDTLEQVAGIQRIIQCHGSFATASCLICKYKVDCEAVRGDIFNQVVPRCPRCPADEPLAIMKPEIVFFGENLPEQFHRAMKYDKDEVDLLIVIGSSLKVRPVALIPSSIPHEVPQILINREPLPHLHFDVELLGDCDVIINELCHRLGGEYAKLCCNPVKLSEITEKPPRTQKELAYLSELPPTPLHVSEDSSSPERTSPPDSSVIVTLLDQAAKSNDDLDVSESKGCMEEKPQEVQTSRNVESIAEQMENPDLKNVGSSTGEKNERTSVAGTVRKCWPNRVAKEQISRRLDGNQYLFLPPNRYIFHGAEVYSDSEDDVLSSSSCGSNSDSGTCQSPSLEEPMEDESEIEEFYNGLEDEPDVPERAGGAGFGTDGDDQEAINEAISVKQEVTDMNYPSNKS

Each compound was assayed against NAD-dependent deacetylase Sirtuin 1 (human, UniProt Q96EB6) (assay: primary screen, delta tm). Conditions: 10 µM.
Parameters: single well (n = 1)
How it was run: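 Thermal shift of Sirtuin 1 measured without NAD+, compound at 10 µM (n = 1); value is ΔTm, with hits defined as ΔTm > 0.45 K or < −1.5 K. Hits retested at 5, 10, 20 µM (n = 4) and counterscreened on bovine carbonic anhydrase and ABL1 SH2 domain.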

Row | SMILES | TSA(without NAD+) / Primary screening (TSA) / delta Tm (K)
1 | CCOCCCOC(=O)c1ccc2[nH]c(C(F)F)nc2c1 | -0.02 K
2 | COc1cccc(C(=O)C2=C(O)C(=O)N(CCCN3CCOCC3)C2c2ccccn2)c1 (centres unmarked) | 0.02 K
3 | CCOc1ccc(C(=O)N[C@H](C(=O)Nc2nc[nH]c2C(N)=O)C(C)C)cc1 | -0.05 K
4 | NC(=O)c1c(NC(=O)C2CCN(c3ncc(C(F)(F)F)cc3Cl)CC2)sc2c1CCC2 | 0.39 K
5 | CCN(Cc1cccs1)C(=O)CSc1ncnc2c1cnn2C | -0.15 K
6 | Cc1nc(-c2ccc(CCNC(=O)c3ccc(NC(N)=O)cc3)s2)cs1 | 0.23 K
7 | CCOC(=O)C(C#N)C1(C#N)CCCC1 (centres unmarked) | -0.12 K
8 | Sc1nc(C2CC2)n(-c2ccccc2)n1 | 0.06 K
9 | CC(C)C(N)CN (centres unmarked) | -0.21 K
10 | COc1ccc(-c2nn(-c3ccccc3)cc2C=C2C(=O)NC(=S)NC2=O)cc1OC | -0.05 K
11 | COc1cccc2cc(C(=O)C3=C(O)C(=O)N(CCCN4CCOCC4)C3c3ccc(F)cc3)oc12 (centres unmarked) | -0.12 K
12 | CCC1(c2ccc(F)cc2)NC(=O)N(CC(=O)Nc2ccc(C(N)=O)cc2)C1=O (centres unmarked) | -0.22 K
13 | O=C1NCCCc2[nH]c3ccc(Cl)cc3c21 | -0.13 K
14 | Cc1[nH]c2ccc(C(=O)NC3CCC(C(N)=O)CC3)cc2c1C (centres unmarked) | 0.13 K
15 | COC(=O)c1cccc(NC(=O)COC(=O)c2cc(O)cs2)c1 | 0.16 K
16 | N#Cc1c(NCCOc2ccc3c(c2)CCC(=O)N3)nc2ccccn12 | -0.12 K
17 | Cn1cc(C(=O)Nc2cccc(C3(C)NC(=O)NC3=O)c2)c2ccccc21 (centres unmarked) | -0.14 K
18 | Cc1ccc(Cc2cnc(N)s2)cc1 | -0.22 K
19 | CC(C)CCN1C(=O)c2ccc(C(=O)OCC(=O)NC(C)C34CC5CC(CC(C5)C3)C4)cc2C1=O (centres unmarked) | 0.48 K
20 | CN(C)c1ncccc1CNC(=O)CN(C)c1ncnc2nc[nH]c12 | -0.12 K
21 | NC(=S)c1ccc(C(=O)Nc2ccc(OC(F)F)cc2)cc1 | 0.12 K
22 | COc1ccc(CNCC(=O)Nc2sc(-c3ccccc3)cc2C(N)=O)cc1 | -0.12 K
23 | Cc1ccc(N(C)S(=O)(=O)c2cccc(C(=O)OCC(N)=O)c2)cc1 | -0.04 K

From entry 5 up to 8, copied from above:
Row | SMILES | TSA(without NAD+) / Primary screening (TSA) / delta Tm (K)
5 | CCN(Cc1cccs1)C(=O)CSc1ncnc2c1cnn2C | -0.15 K
6 | Cc1nc(-c2ccc(CCNC(=O)c3ccc(NC(N)=O)cc3)s2)cs1 | 0.23 K
7 | CCOC(=O)C(C#N)C1(C#N)CCCC1 (centres unmarked) | -0.12 K
8 | Sc1nc(C2CC2)n(-c2ccccc2)n1 | 0.06 K

(further entries)

Row | SMILES | TSA(without NAD+) / Primary screening (TSA) / delta Tm (K)
24 | CCOc1cc(/C=C/C(=O)C2C(=O)C=C(C)OC2=O)ccc1OCC(=O)N1CCOCC1 (centres unmarked) | 0.02 K
25 | CC(C)C(NC(=O)CCCn1c(=O)oc2cc([N+](=O)[O-])ccc21)c1nnc2ccccn12 (centres unmarked) | -0.08 K
26 | CC(=O)c1ccc(NC(=O)C(C)OC(=O)c2cccc(S(=O)(=O)NC(C)C34CC5CC(CC(C5)C3)C4)c2)cc1 (centres unmarked) | 0.35 K
27 | CN(c1ccc(F)cc1)S(=O)(=O)c1ccc(Cl)c(C(=O)Nc2ccc(C(N)=O)cc2)c1 | 0.12 K
28 | C=CCOc1ccc(C(=O)C2=C(O)C(=O)N(CCN3CCOCC3)C2c2ccco2)cc1 (centres unmarked) | -0.15 K
29 | NC(=O)C1CC(C(=O)NCc2ccc(O)cc2)=NN1c1ccccc1 (centres unmarked) | -0.12 K
30 | COc1ccc(NC(=O)NCC(C)(C)SC)cc1 | -0.13 K
31 | CC(=O)c1cc(CCC(=O)Nc2ccc(-c3nnc4n3CCCCC4)cc2)oc1C | 0.02 K
32 | CN(c1ccccc1)S(=O)(=O)c1cccc(C(=O)Nc2ccccc2-c2ccccc2)c1 | 0.23 K
33 | c1nc(N2CCOCC2)c2sccc2n1 | 0.12 K
34 | COc1cccc(C(C)CC(=O)N2CCC(Oc3ccnc(C(N)=O)c3)CC2)c1 (centres unmarked) | 0.02 K
35 | COc1cccc(CN(C(=O)CN2C(=O)c3cccc(N)c3C2=O)C23CC4CC(CC(C4)C2)C3)c1 | -0.18 K
36 | COc1ccc([N+](=O)[O-])cc1NC(=O)C(C)N(NC(=O)COc1cccc(Br)c1)C(C)C(=O)Nc1cc([N+](=O)[O-])ccc1OC (centres unmarked) | -0.12 K
37 | NNc1ncnc2c1cnn2-c1ccc(Cl)cc1 | 0.15 K
38 | OCCCNc1nc2ccccc2s1 | -0.27 K
39 | Cc1ccc(N(C)S(=O)(=O)c2cccc(C(=O)Nc3nc4ccccc4[nH]3)c2)cc1 | -0.02 K
40 | Cc1ccccc1C(=O)N1CCC(C(=O)NC2CCCCCC2)CC1 | 0.05 K
41 | Cc1onc(-c2ccccc2)c1-c1nnc(CSc2ncnc3sc4c(c23)CCC(C)C4)o1 (centres unmarked) | -0.07 K
42 | N#Cc1ccc(OCCN2CCCC2C(N)=O)cc1 (centres unmarked) | -0.17 K
43 | CN(C)C(C)(C)CNc1ncnc2ccsc12 | 0.02 K
44 | C#CCNC(=O)CNC(=O)c1ccc2c(=O)[nH]c(S)nc2c1 | 0.19 K
45 | COC(=O)c1ccc2[nH]c3c(c2c1)CNCC3 | -0.11 K
46 | CC(=O)c1ccc(N2CCN(c3ncnc4c3oc3ccccc34)CC2)c(F)c1 | -0.12 K

Row | SMILES | TSA(without NAD+) / Primary screening (TSA) / delta Tm (K)
47 | COc1ccc(C(=O)C2=C(O)C(=O)N(CCN3CCOCC3)C2c2ccc(C)o2)cc1OC (centres unmarked) | -0.01 K
48 | Cc1ccc(N(C)S(=O)(=O)c2cccc(C(=O)Nc3c(C)cccc3C(C)C)c2)cc1 | -0.13 K
49 | Cn1c(=O)[nH]c(=O)c2c1nc(N1CCC(C(N)=O)CC1)n2CCCSc1nc2ccccc2s1 | -0.04 K
50 | CC(NC(=O)c1nccnc1N)c1ccc(NC(=O)C2CC2)cc1 (centres unmarked) | -0.15 K
51 | O=C(CN1CCCC2(CC=CCC2)C1)N1CCc2[nH]c3ccccc3c2C1 (centres unmarked) | -0.23 K
52 | Cc1ccc2oc(=O)cc(N3C[C@H]4C[C@H](C3)c3cccc(=O)n3C4)c2c1 | 0.06 K
53 | CNC(=O)Cn1ccc(C(F)(F)F)n1 | -0.04 K
54 | Cc1c(C(=O)C2=C(O)C(=O)N(CCCN3CCOCC3)C2c2ccccc2)cnn1-c1ccccc1 (centres unmarked) | 0.03 K
55 | O=C(Nc1ccc(F)c(F)c1F)c1ccncc1 | -0.05 K
56 | CCCNC(=O)C1CCCN1c1cc(C(F)(F)F)nc2ccccc12 (centres unmarked) | -0.23 K
57 | Cc1ccc(-c2nc(CC(=O)NNC(=O)c3cccs3)cs2)c(C)c1 | 0.02 K
58 | Cn1c(=O)c2c(ncn2CCCC(=O)Nc2nc(-c3ccc4c(c3)CCC(=O)N4)cs2)n(C)c1=O | 0.08 K
59 | CCC1CCc2[nH]c3ccc(C)cc3c2C1 (centres unmarked) | -0.15 K
60 | COc1ccc(N(C)S(=O)(=O)c2cccc(C(=O)Nc3ccc4c(C)cc(=O)oc4c3)c2)cc1 | -0.13 K
61 | C=CCOc1ccc(C(=O)C2=C(O)C(=O)N(CCCN3CCOCC3)C2c2ccccc2F)cc1 (centres unmarked) | -0.04 K
62 | C/C(CC12CC3CC(CC(C3)C1)C2)=N/NC1=NS(=O)(=O)c2ccccc21 | -0.08 K
63 | COc1ccc(Nc2ccc3nnnn3n2)cc1OCC1CCCO1 (centres unmarked) | -0.22 K
64 | O=C(O)CCS(=O)(=O)[O-] | -0.03 K
65 | CN(C)c1ncnc2c1cc(C(=O)O)n2C | -0.02 K
66 | O=C1NC(Cc2ccccc2)C(=O)N1CN1CCN(C/C=C/c2ccccc2)CC1 (centres unmarked) | -0.01 K
67 | CS(=O)(=O)CCS(N)(=O)=O | -0.27 K
68 | O=C1/C(=C/c2ccccc2)Oc2cc(O)ccc21 | 0.08 K
69 | NC(=O)c1ccc(NC(=O)CSc2nnc(N)s2)cc1 | -0.24 K

Row | SMILES | TSA(without NAD+) / Primary screening (TSA) / delta Tm (K)
70 | Cc1sc2ncnc(N3CCC(C(=O)Nc4sc5c(c4C(N)=O)CCCC5)CC3)c2c1C | 0.16 K
71 | CCn1nnc2cc(C(=O)N3CCN(C(c4ccc(F)cc4)c4ccc(F)cc4)CC3)ccc21 | -0.27 K
72 | CCc1ccccc1-n1c(SCCS(C)(=O)=O)nc2ccccc2c1=O | -0.23 K
73 | COc1cc(CNc2ncccc2C#N)ccn1 | -0.18 K
74 | Cc1nc(-c2c[nH]c(C(=O)NCc3ccc(-n4cncn4)cc3)c2)cs1 | -0.21 K
75 | COc1ccc(NC(=O)c2ccc(NC(=O)c3cnoc3C)cc2)cc1OCc1cccnc1 | -0.18 K
76 | Cc1ccc(S(=O)(=O)N2CCC(C(=O)N3CCCCCCC3)CC2)cc1C | 0.15 K
77 | NC(=O)CCn1cnc2cc(F)c(F)cc21 | -0.27 K
78 | CN1CCN(C(=O)CCCc2ccccc2)c2nc3ccccc3nc21 | 0.03 K
79 | COc1cc(C(=O)NC2CCCNC2=O)cc(OC)c1C (centres unmarked) | -0.18 K
80 | CN1CCC(NC(=O)CCc2cnccn2)C1c1ccccc1 (centres unmarked) | -0.27 K
81 | NC(=O)c1ccc(=O)n(Cc2csc(-c3ccccc3F)n2)n1 | -0.08 K
82 | CNC(=O)C1CCCN(c2ncnc3ccsc23)C1 (centres unmarked) | -0.28 K
83 | O=C(Nc1cccc(S(=O)(=O)NCc2ccco2)c1)C1=NN(c2ccccc2)C(=O)CC1 | -0.18 K
84 | O=C(/C=C/c1ccc2c(c1)OCCCO2)N1CCN(S(=O)(=O)/C=C/c2ccccc2)CC1 | 0.02 K
85 | Cc1ccc2[nH]c3c(c2c1)CC(=O)CC3 | -0.17 K
86 | COCCCCC(=O)O | -0.28 K
87 | COc1ccc(C2NC(=O)c3ccccc3N2)cc1C (centres unmarked) | -0.21 K
88 | O=C1NC(=O)N(c2ccc3c(c2)OCO3)C1=O | 0.13 K
89 | Cn1c(CCNC(=O)CCc2cccnc2)nc2cc(Cl)ccc21 | -0.02 K
90 | Cc1cc(C=C(C#N)C#N)c(C)n1C1CC1 | -0.18 K
91 | CC1(C)CCC(NC(=O)Cn2c(=O)cnc3ccccc32)c2ccccc21 (centres unmarked) | -0.22 K
92 | O=C(Cn1c(=O)cnc2ccccc21)Nc1ccc(N2CCN(Cc3ccccc3)CC2)cc1 | 0.07 K
